Some of the results follow.
Compound: COc1ccc(Cn2ccc3ccc(C(=O)NO)cc32)cc1
Experiment: dose-dependent thermal stabilisation call (2D-TPP, DLPTP, 10% FDR) (binary (1 = stabilised)); higher = stabilised by the compound
Conditions: system: HL-60 intact cells; concentration range 0.04-10 µM

Amino acid sequences for entries named in this document (tags omitted). A change or cut given only in a name is not applied to a line headed by its entry.
UniProt Q96GG9: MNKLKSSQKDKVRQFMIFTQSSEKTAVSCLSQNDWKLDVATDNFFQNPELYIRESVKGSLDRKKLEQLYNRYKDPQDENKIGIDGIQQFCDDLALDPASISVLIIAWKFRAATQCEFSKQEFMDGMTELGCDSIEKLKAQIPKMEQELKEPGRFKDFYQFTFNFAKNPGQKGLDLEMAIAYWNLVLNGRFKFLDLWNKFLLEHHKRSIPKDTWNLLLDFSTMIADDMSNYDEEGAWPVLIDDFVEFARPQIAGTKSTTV
UniProt Q9Y4D1, whole entry: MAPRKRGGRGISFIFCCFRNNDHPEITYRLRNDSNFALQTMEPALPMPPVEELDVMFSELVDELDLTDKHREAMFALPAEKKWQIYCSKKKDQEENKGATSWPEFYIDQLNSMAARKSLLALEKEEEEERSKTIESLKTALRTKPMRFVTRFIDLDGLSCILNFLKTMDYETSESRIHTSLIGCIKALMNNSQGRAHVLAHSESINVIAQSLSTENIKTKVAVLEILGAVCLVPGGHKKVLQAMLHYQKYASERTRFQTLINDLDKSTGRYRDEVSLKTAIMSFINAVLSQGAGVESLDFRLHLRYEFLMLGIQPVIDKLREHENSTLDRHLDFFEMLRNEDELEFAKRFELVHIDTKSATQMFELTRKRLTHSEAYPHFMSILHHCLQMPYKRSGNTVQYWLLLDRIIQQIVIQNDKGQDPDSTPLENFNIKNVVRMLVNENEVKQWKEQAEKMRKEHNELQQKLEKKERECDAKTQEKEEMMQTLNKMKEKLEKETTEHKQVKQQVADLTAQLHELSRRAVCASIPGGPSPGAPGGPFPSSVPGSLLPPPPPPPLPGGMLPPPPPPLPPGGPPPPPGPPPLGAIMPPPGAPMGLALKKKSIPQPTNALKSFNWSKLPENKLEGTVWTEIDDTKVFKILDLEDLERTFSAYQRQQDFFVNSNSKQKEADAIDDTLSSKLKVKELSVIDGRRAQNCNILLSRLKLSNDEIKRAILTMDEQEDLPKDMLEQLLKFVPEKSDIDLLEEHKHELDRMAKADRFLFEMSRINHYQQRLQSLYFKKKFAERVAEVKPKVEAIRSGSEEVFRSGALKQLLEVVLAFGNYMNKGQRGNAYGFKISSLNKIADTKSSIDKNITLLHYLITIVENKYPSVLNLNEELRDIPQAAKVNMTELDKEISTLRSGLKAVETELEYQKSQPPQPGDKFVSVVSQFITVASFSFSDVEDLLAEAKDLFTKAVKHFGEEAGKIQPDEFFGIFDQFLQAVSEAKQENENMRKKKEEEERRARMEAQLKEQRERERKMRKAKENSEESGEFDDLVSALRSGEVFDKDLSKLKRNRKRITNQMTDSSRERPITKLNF
UniProt Q9UHQ9: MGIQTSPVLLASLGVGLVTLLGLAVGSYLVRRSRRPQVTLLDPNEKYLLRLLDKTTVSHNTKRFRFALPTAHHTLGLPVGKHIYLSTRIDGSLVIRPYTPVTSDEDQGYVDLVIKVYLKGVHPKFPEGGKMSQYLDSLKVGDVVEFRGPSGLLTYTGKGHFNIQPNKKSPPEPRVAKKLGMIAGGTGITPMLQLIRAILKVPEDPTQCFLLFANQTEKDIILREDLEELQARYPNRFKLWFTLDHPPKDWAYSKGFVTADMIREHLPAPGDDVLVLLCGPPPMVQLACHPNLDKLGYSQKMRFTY
UniProt O43143: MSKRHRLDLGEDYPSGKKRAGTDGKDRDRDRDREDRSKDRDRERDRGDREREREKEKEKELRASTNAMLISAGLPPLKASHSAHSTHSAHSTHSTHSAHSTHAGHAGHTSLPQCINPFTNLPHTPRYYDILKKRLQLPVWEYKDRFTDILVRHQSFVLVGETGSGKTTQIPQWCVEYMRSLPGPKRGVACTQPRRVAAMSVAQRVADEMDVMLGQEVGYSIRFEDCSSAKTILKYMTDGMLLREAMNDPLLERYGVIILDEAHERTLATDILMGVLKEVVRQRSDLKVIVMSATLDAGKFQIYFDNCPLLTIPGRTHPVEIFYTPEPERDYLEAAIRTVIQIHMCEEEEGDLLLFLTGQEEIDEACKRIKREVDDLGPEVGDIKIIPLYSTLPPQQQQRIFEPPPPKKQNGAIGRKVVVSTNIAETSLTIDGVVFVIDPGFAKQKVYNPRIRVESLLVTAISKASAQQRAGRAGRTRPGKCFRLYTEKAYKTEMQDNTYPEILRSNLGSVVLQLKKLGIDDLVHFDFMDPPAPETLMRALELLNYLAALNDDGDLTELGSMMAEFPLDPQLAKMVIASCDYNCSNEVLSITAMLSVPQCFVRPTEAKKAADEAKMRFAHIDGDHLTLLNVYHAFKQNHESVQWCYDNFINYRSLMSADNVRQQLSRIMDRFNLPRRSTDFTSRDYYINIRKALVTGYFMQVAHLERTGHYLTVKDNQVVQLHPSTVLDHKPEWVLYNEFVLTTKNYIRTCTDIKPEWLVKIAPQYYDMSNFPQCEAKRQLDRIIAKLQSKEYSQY
UniProt O95232: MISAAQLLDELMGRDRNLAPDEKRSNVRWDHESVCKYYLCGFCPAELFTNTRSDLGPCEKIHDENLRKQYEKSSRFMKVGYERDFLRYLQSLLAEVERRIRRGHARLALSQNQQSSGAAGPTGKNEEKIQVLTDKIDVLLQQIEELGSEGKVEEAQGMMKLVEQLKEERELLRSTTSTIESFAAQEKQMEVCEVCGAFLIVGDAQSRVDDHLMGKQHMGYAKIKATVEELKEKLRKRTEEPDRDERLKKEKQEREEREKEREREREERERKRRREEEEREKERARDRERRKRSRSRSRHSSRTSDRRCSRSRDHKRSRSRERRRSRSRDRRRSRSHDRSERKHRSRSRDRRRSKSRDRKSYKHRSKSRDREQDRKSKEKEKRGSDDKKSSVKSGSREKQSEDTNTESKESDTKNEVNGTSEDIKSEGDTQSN
UniProt Q9Y2S2: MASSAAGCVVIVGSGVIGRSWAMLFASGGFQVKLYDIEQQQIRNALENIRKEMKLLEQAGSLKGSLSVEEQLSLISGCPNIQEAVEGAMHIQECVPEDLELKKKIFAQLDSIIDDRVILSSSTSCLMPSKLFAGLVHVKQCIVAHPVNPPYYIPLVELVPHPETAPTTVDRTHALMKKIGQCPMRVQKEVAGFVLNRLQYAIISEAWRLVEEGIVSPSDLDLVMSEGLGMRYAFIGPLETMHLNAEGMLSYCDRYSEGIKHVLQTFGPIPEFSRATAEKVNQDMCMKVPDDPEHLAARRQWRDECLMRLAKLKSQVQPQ
UniProt Q8N6G5: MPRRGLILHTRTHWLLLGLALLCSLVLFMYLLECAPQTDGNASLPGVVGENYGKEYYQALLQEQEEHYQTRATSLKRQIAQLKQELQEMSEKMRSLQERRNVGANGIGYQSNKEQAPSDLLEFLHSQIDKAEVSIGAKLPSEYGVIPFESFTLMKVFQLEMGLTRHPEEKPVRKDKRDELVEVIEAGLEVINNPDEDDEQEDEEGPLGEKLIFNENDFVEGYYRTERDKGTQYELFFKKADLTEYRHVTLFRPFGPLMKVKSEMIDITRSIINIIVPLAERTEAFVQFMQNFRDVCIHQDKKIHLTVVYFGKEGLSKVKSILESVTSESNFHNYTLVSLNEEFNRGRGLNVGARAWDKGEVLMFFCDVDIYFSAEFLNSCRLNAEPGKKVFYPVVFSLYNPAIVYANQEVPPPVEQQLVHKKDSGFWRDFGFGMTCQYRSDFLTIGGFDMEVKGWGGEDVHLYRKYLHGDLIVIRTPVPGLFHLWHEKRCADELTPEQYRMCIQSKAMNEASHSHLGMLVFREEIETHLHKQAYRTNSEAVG
UniProt Q9BR76, whole entry: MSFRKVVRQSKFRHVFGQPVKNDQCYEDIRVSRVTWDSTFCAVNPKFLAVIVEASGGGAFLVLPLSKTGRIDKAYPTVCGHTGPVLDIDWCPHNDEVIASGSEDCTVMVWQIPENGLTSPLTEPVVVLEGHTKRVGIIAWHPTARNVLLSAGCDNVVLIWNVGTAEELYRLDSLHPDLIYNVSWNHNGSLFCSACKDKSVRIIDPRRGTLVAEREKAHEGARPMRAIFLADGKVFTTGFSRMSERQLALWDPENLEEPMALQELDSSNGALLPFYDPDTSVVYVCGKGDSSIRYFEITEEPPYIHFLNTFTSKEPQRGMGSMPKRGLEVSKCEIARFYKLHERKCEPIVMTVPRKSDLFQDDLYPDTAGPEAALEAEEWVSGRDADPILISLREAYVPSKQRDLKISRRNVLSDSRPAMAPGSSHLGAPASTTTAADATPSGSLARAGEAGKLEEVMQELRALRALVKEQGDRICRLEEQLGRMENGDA
UniProt O43402: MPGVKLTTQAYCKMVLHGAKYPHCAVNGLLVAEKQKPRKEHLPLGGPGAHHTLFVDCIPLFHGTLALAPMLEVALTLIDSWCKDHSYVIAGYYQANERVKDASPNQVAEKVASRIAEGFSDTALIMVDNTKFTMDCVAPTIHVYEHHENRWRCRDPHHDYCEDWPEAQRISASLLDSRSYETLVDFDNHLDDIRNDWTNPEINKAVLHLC
UniProt Q49B96: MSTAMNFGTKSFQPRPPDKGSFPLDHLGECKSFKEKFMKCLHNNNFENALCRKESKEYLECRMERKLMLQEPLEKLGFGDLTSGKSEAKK
UniProt Q9NUU7: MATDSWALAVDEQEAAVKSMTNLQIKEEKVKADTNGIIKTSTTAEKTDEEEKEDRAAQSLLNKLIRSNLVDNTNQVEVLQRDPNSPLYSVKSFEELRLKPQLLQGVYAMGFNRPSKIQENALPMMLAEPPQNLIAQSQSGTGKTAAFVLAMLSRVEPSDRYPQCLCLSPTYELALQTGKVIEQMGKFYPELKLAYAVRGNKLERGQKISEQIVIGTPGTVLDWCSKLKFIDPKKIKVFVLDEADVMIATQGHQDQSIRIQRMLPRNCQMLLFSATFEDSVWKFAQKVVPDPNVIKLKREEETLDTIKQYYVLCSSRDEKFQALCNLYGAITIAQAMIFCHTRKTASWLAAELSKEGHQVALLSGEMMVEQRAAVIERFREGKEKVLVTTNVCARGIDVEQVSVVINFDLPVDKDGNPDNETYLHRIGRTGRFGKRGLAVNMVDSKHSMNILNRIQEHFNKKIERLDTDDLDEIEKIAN
UniProt P0CG13, whole entry: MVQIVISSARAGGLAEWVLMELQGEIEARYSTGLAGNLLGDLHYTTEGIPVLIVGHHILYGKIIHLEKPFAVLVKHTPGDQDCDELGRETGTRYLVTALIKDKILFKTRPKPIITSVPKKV
UniProt O60231: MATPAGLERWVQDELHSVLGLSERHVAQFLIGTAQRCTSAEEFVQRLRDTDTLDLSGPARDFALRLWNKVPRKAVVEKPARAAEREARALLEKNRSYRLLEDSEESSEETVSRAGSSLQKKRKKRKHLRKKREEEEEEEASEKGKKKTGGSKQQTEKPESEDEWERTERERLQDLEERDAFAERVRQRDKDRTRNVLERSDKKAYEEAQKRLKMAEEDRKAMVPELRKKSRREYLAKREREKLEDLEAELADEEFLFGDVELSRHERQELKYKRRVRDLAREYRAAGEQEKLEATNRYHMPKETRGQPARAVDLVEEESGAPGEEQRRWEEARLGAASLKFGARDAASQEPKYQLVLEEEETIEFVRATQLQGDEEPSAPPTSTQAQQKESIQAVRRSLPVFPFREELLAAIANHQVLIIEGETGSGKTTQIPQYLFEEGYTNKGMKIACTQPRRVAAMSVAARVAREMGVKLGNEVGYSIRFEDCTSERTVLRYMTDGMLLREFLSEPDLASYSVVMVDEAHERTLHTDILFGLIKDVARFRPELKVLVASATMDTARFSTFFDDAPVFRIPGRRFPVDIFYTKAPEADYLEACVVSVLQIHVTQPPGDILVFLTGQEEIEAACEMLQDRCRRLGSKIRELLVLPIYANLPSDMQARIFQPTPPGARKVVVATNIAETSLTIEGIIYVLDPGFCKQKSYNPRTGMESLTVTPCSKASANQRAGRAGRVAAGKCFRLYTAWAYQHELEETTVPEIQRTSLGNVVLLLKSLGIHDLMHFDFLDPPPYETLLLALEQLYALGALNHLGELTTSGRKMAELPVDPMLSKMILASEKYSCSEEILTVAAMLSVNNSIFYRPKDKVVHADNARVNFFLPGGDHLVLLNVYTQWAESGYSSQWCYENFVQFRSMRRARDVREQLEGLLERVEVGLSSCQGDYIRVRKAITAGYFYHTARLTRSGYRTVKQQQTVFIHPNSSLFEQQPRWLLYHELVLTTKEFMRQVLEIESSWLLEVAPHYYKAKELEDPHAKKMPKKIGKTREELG
UniProt P78368: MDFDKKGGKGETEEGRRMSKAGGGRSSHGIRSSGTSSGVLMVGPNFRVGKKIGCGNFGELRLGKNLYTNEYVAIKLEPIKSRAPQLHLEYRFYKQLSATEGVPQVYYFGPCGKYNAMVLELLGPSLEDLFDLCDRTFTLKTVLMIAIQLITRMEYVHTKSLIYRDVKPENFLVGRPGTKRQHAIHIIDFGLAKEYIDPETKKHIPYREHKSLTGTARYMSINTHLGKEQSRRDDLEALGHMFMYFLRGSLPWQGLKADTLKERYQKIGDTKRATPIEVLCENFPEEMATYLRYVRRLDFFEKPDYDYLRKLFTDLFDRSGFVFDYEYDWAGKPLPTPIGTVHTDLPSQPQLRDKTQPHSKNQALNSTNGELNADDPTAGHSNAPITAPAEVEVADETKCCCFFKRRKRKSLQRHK

| Target | dose-dependent thermal stabilisation call |
| --- | --- |
| DARS (UniProt P14868) | inactive: 0 |
| CS (UniProt O75390) | inactive: 0 |
| CTH (UniProt P32929) | inactive: 0 |
| COPB1 (UniProt P53618) | inactive: 0 |
| DCUN1D1 (UniProt Q96GG9) | inactive: 0 |
| CYTB (UniProt P00156) | inactive: 0 |
| DBN1 (UniProt Q16643) | inactive: 0 |
| DAAM1 (UniProt Q9Y4D1) | inactive: 0 |
| CYB5R1 (UniProt Q9UHQ9) | inactive: 0 |
| DHX15 (UniProt O43143) | inactive: 0 |
| DHX34 (UniProt Q14147) | inactive: 0 |
| CROP (UniProt O95232) | inactive: 0 |
| CTDSP1 (UniProt Q9GZU7) | inactive: 0 |
| DENND3 (UniProt A2RUS2) | inactive: 0 |
| CORO1C (UniProt Q9ULV4) | inactive: 0 |
| DHRS1 (UniProt Q96LJ7) | active: 1 |
| DDX39 (UniProt O00148) | inactive: 0 |
| CRYL1 (UniProt Q9Y2S2) | inactive: 0 |
| CSGALNACT2 (UniProt Q8N6G5) | inactive: 0 |

Pulled one by one from the list above (two):

| Target | dose-dependent thermal stabilisation call |
| --- | --- |
| DCUN1D1 (UniProt Q96GG9) | inactive: 0 |
| DHRS1 (UniProt Q96LJ7) | active: 1 |

Continued.

| Target | dose-dependent thermal stabilisation call |
| --- | --- |
| CXXC1 (UniProt Q9P0U4) | inactive: 0 |
| COX17 (UniProt Q14061) | inactive: 0 |
| COX7C (UniProt P15954) | inactive: 0 |
| DCTN2 (UniProt Q13561) | inactive: 0 |
| CORO1B (UniProt Q9BR76) | inactive: 0 |
| DDX21 (UniProt Q9NR30) | inactive: 0 |
| COX18 (UniProt Q8N8Q8) | inactive: 0 |
| DDX47 (UniProt Q9H0S4) | inactive: 0 |
| COX4NB (UniProt O43402) | inactive: 0 |
| COX19 (UniProt Q49B96) | inactive: 0 |
| DDX19A (UniProt Q9NUU7) | inactive: 0 |
| CSDA (UniProt P16989) | inactive: 0 |
| COPS4 (UniProt Q9BT78) | inactive: 0 |
| DHPS (UniProt P49366) | inactive: 0 |
| CTPS2 (UniProt Q9NRF8) | inactive: 0 |
| CTF8 (UniProt P0CG13) | inactive: 0 |
| DHX16 (UniProt O60231) | inactive: 0 |
| COX4I1 (UniProt P13073) | inactive: 0 |
| CSNK1G2 (UniProt P78368) | inactive: 0 |
